Laboratory results as given in the supplement of paper PMC12024529.
Structures can show the parent of a compound that is named as a salt. Some of the results follow. Part of the spread comes from offsets between plates or batches.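 Wild-type or misfolding-prone missense mutant B-domain-deleted factor VIII, fused to Gaussia luciferase, is stably expressed in HEK293 lines. Each score is (mean triplicate-well luminescence minus DMSO mean) divided by DMSO standard deviation. Hits score at least 2; lower scores could stem from decreased secretion or poorer cell viability.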

Each molecule was assayed on HEK293 WT BDD-FVIII-Gluc (assay: secreted FVIII-Gluc luciferase Z-score vs DMSO control; higher = more FVIII-Gluc secretion). Settings: 5 µM; 24 h.

Secreted FVIII-Gluc luciferase Z-score, active:
O=C(O)Cc1ccccc1Nc1c(Cl)cccc1Cl [Diclofenac Potassium] 2.21

Secreted FVIII-Gluc luciferase Z-score, inactive:
CC(=O)O[C@H]1C[C@@H]2CC[C@@H]3[C@H](CC[C@@]4(C)[C@H]3C[C@H]([N+]3(C)CCCCC3)[C@@H]4OC(C)=O)[C@@]2(C)C[C@@H]1N1CCCCC1 [Vecuronium Bromide] -3.63, CC[C@H](C)C[C@H](C)CCCCCCCCC(=O)N[C@H]1C[C@@H](O)[C@@H](NCCN)NC(=O)[C@@H]2[C@@H](O)CCN2C(=O)[C@H]([C@H](O)CCN)NC(=O)[C@H]([C@H](O)[C@@H](O)c2ccc(O)cc2)NC(=O)[C@@H]2C[C@@H](O)CN2C(=O)[C@H]([C@@H](C)O)NC1=O [Caspofungin acetate] -0.353, O=C(O)c1ccc(-n2nc(-c3ccccc3O)nc2-c2ccccc2O)cc1 [Deferasirox (Exjade)] -3.01, OCCN(CCO)c1nc(N2CCCCC2)c2nc(N(CCO)CCO)nc(N3CCCCC3)c2n1 [Dipyridamole (Persantine)] -0.0358, Cn1c(=O)c2c(ncn2CC(O)CO)n(C)c1=O (centres undefined) [Dyphylline (Dilor)] -2.84, OC(CCN1CCCCC1)(c1ccccc1)c1ccccc1 [Pridinol Methanesulfonate] -0.894, COc1ccc(CC2c3cc(OC)c(OC)cc3CC[N+]2(C)CCC(=O)OCCCCCOC(=O)CC[N+]2(C)CCc3cc(OC)c(OC)cc3C2Cc2ccc(OC)c(OC)c2)cc1OC (centres undefined) [Atracurium besylate] -2.61, NC(=O)c1cccnc1 [Nicotinamide (Niacinamide)] -3.01, Cc1cnc(NC(=O)C2=C(O)c3ccccc3S(=O)(=O)N2C)s1 [Meloxicam (Mobic)] -3.9, Cc1c(OCC(F)(F)F)ccnc1C[S+]([O-])c1nc2ccccc2[nH]1 (centres undefined) [Lansoprazole] -5.8, Cc1cccc(C)c1OCC(=O)N[C@@H](Cc1ccccc1)[C@@H](O)C[C@H](Cc1ccccc1)NC(=O)[C@H](C(C)C)N1CCCNC1=O [Lopinavir (ABT-378)] -5.16, CCCCCCCCCCCCCCCCO [1-Hexadecanol] -2.59, CN1CCC(=C2c3ccccc3C=Cc3ccccc32)CC1 [Cyproheptadine HCl (Periactin)] -2.23, CC1(C)[C@H](C(=O)O)N2C(=O)C[C@H]2S1(=O)=O [Sulbactam] -0.0819, Cc1cc(C)nc(NS(=O)(=O)c2ccc(N)cc2)n1 [Sulfamethazine] 0.189, Nc1ncn([C@H]2C[C@H](O)[C@@H](CO)O2)c(=O)n1 [Decitabine] 0.57, COc1ccccc1N1CCN(CC(O)COc2cccc3ccccc23)CC1 (centres undefined) [Naftopidil (Flivas)] -0.898, CN(C)c1ccc(C(=C2C=CC(=[N+](C)C)C=C2)c2ccc(N(C)C)cc2)cc1 [Crystal violet] -7.98, COc1ccccc1OCC(O)CN1CCN(CC(=O)Nc2c(C)cccc2C)CC1 (centres undefined) [Ranolazine dihydrochloride] -2.7, CC(C)NCC(O)c1ccc(NS(C)(=O)=O)cc1 (centres undefined) [Sotalol (Betapace)] -0.351, CCCN[C@H]1CCc2nc(N)sc2C1 [Pramipexole dihydrochloride monohydrate] -0.836, COc1ccc2[nH]c([S+]([O-])Cc3ncc(C)c(OC)c3C)nc2c1 (centres undefined) [Omeprazole (Prilosec)] -2.92, O=C1C(=O)c2ccccc2C(O)=C1C1CCC(c2ccc(Cl)cc2)CC1 (centres undefined) [Atovaquone (Atavaquone)] -1.36, CNC[C@H](O)c1cccc(O)c1 [Phenylephrine HCl] 0.226, COc1ccccc1Oc1c(NS(=O)(=O)c2ccc(C(C)(C)C)cc2)nc(-c2ncccn2)nc1OCCO [Bosentan] -2.93, CC[C@H]1OC(=O)[C@H](C)[C@@H](O[C@H]2C[C@@](C)(OC)[C@@H](O)[C@H](C)O2)[C@H](C)[C@@H](O[C@@H]2O[C@H](C)C[C@H](N(C)C)[C@H]2O)[C@](C)(O)C[C@@H](C)C(=O)[C@H](C)[C@@H](O)[C@]1(C)O [Erythromycin (E-Mycin)] -2.79, O=C1OC(CN2CCOCC2)CN1/N=C/c1ccc([N+](=O)[O-])o1 (centres undefined) [Furaltadone HCl] 0.41

The molecules below were run on HEK293 p.N1941S BDD-FVIII-Gluc in the same assay as above. Settings: 5 µM; 24 h.

Secreted FVIII-Gluc luciferase Z-score, inactive:
Nc1ncn([C@@H]2O[C@H](CO)[C@@H](O)[C@H]2O)c(=O)n1 [Azacitidine (Vidaza)] -1.31, C[C@@H](O)[C@H]1C(=O)N2C(C(=O)OCOC(=O)C(C)(C)C)=C(SC3CN(C4=NCCS4)C3)[C@H](C)[C@H]12 [Tebipenem pivoxil (L-084)] 0.216, O=C(O)C(=O)O.[NH-]C1CCCCC1[NH-].[Pt+2] (centres undefined) [Oxaliplatin (Eloxatin)] -9.76, COC(=O)C1=C(C#N)NC(C)=C(C(=O)OC(C)C)C1c1cccc([N+](=O)[O-])c1 (centres undefined) [Nilvadipine (ARC029)] -0.58, Cc1ccc(Nc2nccc(N(C)c3ccc4c(C)n(C)nc4c3)n2)cc1S(N)(=O)=O [Pazopanib] -1.51, Cc1ccccc1C(OCCN(C)C)c1ccccc1 (centres undefined) [Orphenadrine citrate (Norflex)] -1.58, CN(C)CC/C=C1/c2ccccc2COc2ccc(CC(=O)O)cc21 [Olopatadine hydrochloride (Opatanol)] -1.13, CCCCCCCCCCCCCCCC(=O)O[C@@H]1[C@@H](O)[C@@H](O)[C@@H]([C@H](NC(=O)[C@@H]2C[C@@H](CCC)CN2C)[C@H](C)Cl)O[C@@H]1SC [Clindamycin palmitate HCl] -0.261, Cc1ccc(N(CC2=NCCN2)c2cccc(O)c2)cc1 [Phentolamine mesilate] -0.857, CC(=O)OCC(=O)NCCCOc1cccc(CN2CCCCC2)c1 [Roxatidine acetate HCl] -1.36, CC(=O)O[C@H]1C[C@@H]2CC[C@@H]3[C@H](CC[C@@]4(C)[C@H]3C[C@H]([N+]3(C)CCCCC3)[C@@H]4OC(C)=O)[C@@]2(C)C[C@@H]1N1CCCCC1 [Vecuronium Bromide] 0.0957, CC[C@H](C)C[C@H](C)CCCCCCCCC(=O)N[C@H]1C[C@@H](O)[C@@H](NCCN)NC(=O)[C@@H]2[C@@H](O)CCN2C(=O)[C@H]([C@H](O)CCN)NC(=O)[C@H]([C@H](O)[C@@H](O)c2ccc(O)cc2)NC(=O)[C@@H]2C[C@@H](O)CN2C(=O)[C@H]([C@@H](C)O)NC1=O [Caspofungin acetate] -0.329, O=C(O)c1ccc(-n2nc(-c3ccccc3O)nc2-c2ccccc2O)cc1 [Deferasirox (Exjade)] -3.97, OCCN(CCO)c1nc(N2CCCCC2)c2nc(N(CCO)CCO)nc(N3CCCCC3)c2n1 [Dipyridamole (Persantine)] -0.917, O=C(O)Cc1ccccc1Nc1c(Cl)cccc1Cl [Diclofenac Potassium] 0.537, Cn1c(=O)c2c(ncn2CC(O)CO)n(C)c1=O (centres undefined) [Dyphylline (Dilor)] 0.0187, OC(CCN1CCCCC1)(c1ccccc1)c1ccccc1 [Pridinol Methanesulfonate] 0.928, COc1ccc(CC2c3cc(OC)c(OC)cc3CC[N+]2(C)CCC(=O)OCCCCCOC(=O)CC[N+]2(C)CCc3cc(OC)c(OC)cc3C2Cc2ccc(OC)c(OC)c2)cc1OC (centres undefined) [Atracurium besylate] -1.37, NC(=O)c1cccnc1 [Nicotinamide (Niacinamide)] -0.499, Cc1cnc(NC(=O)C2=C(O)c3ccccc3S(=O)(=O)N2C)s1 [Meloxicam (Mobic)] -1.36, Cc1c(OCC(F)(F)F)ccnc1C[S+]([O-])c1nc2ccccc2[nH]1 (centres undefined) [Lansoprazole] -0.965, Cc1cccc(C)c1OCC(=O)N[C@@H](Cc1ccccc1)[C@@H](O)C[C@H](Cc1ccccc1)NC(=O)[C@H](C(C)C)N1CCCNC1=O [Lopinavir (ABT-378)] -1.79, CCCCCCCCCCCCCCCCO [1-Hexadecanol] -1.34, CN1CCC(=C2c3ccccc3C=Cc3ccccc32)CC1 [Cyproheptadine HCl (Periactin)] -3.93, CC1(C)[C@H](C(=O)O)N2C(=O)C[C@H]2S1(=O)=O [Sulbactam] 0.681, Cc1cc(C)nc(NS(=O)(=O)c2ccc(N)cc2)n1 [Sulfamethazine] -0.79, Nc1ncn([C@H]2C[C@H](O)[C@@H](CO)O2)c(=O)n1 [Decitabine] -1.28, COc1ccccc1N1CCN(CC(O)COc2cccc3ccccc23)CC1 (centres undefined) [Naftopidil (Flivas)] 1.01, CN(C)c1ccc(C(=C2C=CC(=[N+](C)C)C=C2)c2ccc(N(C)C)cc2)cc1 [Crystal violet] -10.6, COc1ccccc1OCC(O)CN1CCN(CC(=O)Nc2c(C)cccc2C)CC1 (centres undefined) [Ranolazine dihydrochloride] 0.149, CC(C)NCC(O)c1ccc(NS(C)(=O)=O)cc1 (centres undefined) [Sotalol (Betapace)] -0.812
